Data source: PubChem BioAssay AID504791 (Drosophila RNAi Screening Center, 2011)
In all, the deposit lists about 23,000 reagents; shown is an unselected part of those that have a named target and a result. Over the whole deposit, 199 (0.86%) are marked active. 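Plate-scaled ratios behind the calls are not deposited; printed light signals are raw; many rows marked increased or decreased are still called inactive.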 A plus sign joins genes that one reagent is predicted to hit. Not stated in the record: the direction of the score.

Test: 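Factors in Argonaute-based small RNA production and activity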 (primary screen)
Cells: Drosophila S2-derived reporter cells
Knock-down reagent: long dsRNA against Drosophila genes, about 150-250 ng dsRNA per well (siRNA assay); about 80-120 ng (miRNA assay)
Timing: about 5 days (siRNA assay); about 4 days (miRNA assay)
Challenge: copper sulfate induction of reporters: 25 µM (siRNA assay); 200 mM stated (miRNA assay), 1-2 days before reading
Measurement: 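Dual luciferase assay: Renilla to firefly signal ratio in each well, scaled to the mean ratio of its plate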
Hit rule: 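a well was a first-pass pick when its plate-scaled ratio rose above 1.5 (siRNA assay) or 1.6 (miRNA assay), or dropped below 0.6; a gene counted only if two separate dsRNAs agreed on retest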

Target gene | DRSC id | stable siRNA reporter change | miRNA reporter change | stable assay Renilla, run 1 (luminescence) | stable assay firefly, run 1 (luminescence) | call
AgmNAT | DRSC18072 | – | – | 5990 | 2.77e5 | inactive
Cyp6t3 | DRSC07388 | – | – | 5983 | 3.57e5 | inactive
CG9072 | DRSC20147 | – | – | 5280 | 4.05e5 | inactive
CG1146 | DRSC08189 | – | – | 9422 | 3.15e5 | inactive
hdm | DRSC18013 | – | – | 6891 | 3.75e5 | inactive
Acsx4 | DRSC14311 | – | – | 7426 | 3.05e5 | inactive
CG34263 | DRSC07866 | – | – | 4772 | 4.70e5 | inactive
CG16865 | DRSC01904 | – | – | 8589 | 4.45e5 | inactive
CG1304 | DRSC20494 | – | – | 5098 | 3.50e5 | inactive
CG16853 | DRSC01877 | – | – | 8139 | 3.83e5 | inactive
Ide | DRSC11867 | – | – | 8424 | 3.40e5 | inactive
CG18258 | DRSC19798 | – | – | 5811 | 4.46e5 | inactive
Trm7-34 | DRSC16171 | – | – | 6583 | 3.58e5 | inactive
xmas-1 (retired record) | DRSC20386 | – | – | 5956 | 5.37e5 | inactive
sha | DRSC06331 | – | – | 6708 | 3.87e5 | inactive
CG30269 | DRSC04158 | – | – | 6612 | 4.47e5 | inactive
fred | DRSC00349 | – | – | 7988 | 4.67e5 | inactive
fred | DRSC00599 | – | – | 4328 | 4.27e5 | inactive
fred | DRSC00601 | – | – | 8785 | 4.08e5 | inactive
fred | DRSC00602 | – | – | 7411 | 3.52e5 | inactive
fred | DRSC21906 | – | – | 8143 | 4.85e5 | inactive
Nt5b | DRSC19976 | reporter ratio lowered past the hit cutoff | – | 3868 | 3.78e5 | inactive
Nt5b | DRSC19977 | – | – | 5139 | 4.42e5 | inactive
Nt5b | DRSC19978 | – | – | 5506 | 4.26e5 | inactive
Nt5b | DRSC22588 | – | – | 4451 | 4.65e5 | inactive
Stat92E | DRSC16870 | – | – | 6416 | 2.50e5 | inactive
Hug | DRSC16969 | – | – | 6878 | 4.42e5 | inactive
Dim1 | DRSC00563 | – | – | 10450 | 5.02e5 | inactive
parvin | DRSC19468 | – | – | 5083 | 5.33e5 | inactive
CG12729 | DRSC17884 | – | – | 5776 | 3.12e5 | inactive
CG5011 | DRSC00039 | – | – | 4035 | 3.44e5 | inactive
CG5011 | DRSC00674 | – | – | 45628 | 1.53e5 | inactive
CG1791 | DRSC18141 | – | – | 7870 | 3.42e5 | inactive
Fum1 | DRSC18344 | – | – | 4736 | 5.37e5 | inactive
CG31301 | DRSC22164 | – | – | 9317 | 5.27e5 | inactive
CG13078 | DRSC02182 | – | – | 7394 | 3.48e5 | inactive
Plod | DRSC10601 | – | – | 7643 | 4.50e5 | inactive
Plod | DRSC10602 | – | – | 5872 | 3.11e5 | inactive
Mer | DRSC20259 | – | – | 8440 | 5.36e5 | inactive
CG30043 | DRSC06285 | – | – | 6696 | 3.69e5 | inactive
KP78a + KP78b | DRSC16721 | – | – | 6867 | 3.55e5 | inactive
KP78a + KP78b | DRSC16722 | – | – | 6218 | 3.32e5 | inactive
CG18234 | DRSC10309 | – | – | 6656 | 3.33e5 | inactive
CG13198 | DRSC06323 | – | – | 5280 | 2.70e5 | inactive
BORCS7 + CG13430 | DRSC06392 | – | – | 11758 | 4.01e5 | inactive
BORCS7 + CG13430 | DRSC06707 | – | – | 7446 | 4.70e5 | inactive
Ibf2 | DRSC16551 | – | – | 6967 | 4.64e5 | inactive
CG14111 | DRSC10114 | – | – | 5248 | 2.92e5 | inactive
CG32639 | DRSC18972 | – | – | 5574 | 4.01e5 | inactive
timeout | DRSC12950 | – | – | 4964 | 4.14e5 | inactive
timeout | DRSC17078 | – | – | 7476 | 4.68e5 | inactive
timeout | DRSC17079 | – | – | 7903 | 4.95e5 | inactive
timeout | DRSC17080 | – | – | 7455 | 5.67e5 | inactive
timeout | DRSC17081 | – | – | 6294 | 4.11e5 | inactive
timeout | DRSC21535 | – | – | 10483 | 6.18e5 | inactive
CG13160 | DRSC06284 | – | – | 8415 | 4.47e5 | inactive
Gapdh1 | DRSC07433 | – | – | 6715 | 4.43e5 | inactive
Dhdds | DRSC17756 | – | – | 6438 | 3.47e5 | inactive
SMC6 | DRSC15829 | – | – | 6652 | 3.18e5 | inactive
Lsd-1 | DRSC14236 | – | – | 10047 | 3.38e5 | inactive
Cul4 | DRSC07243 | – | – | 6056 | 4.27e5 | inactive
vex | DRSC19481 | – | – | 4428 | 3.23e5 | inactive
vex | DRSC19651 | – | – | 5048 | 3.67e5 | inactive
vex | DRSC21843 | – | – | 9005 | 6.75e5 | inactive
salto | DRSC06291 | – | – | 8678 | 4.42e5 | inactive
Tim23 | DRSC21240 | – | – | 4292 | 3.45e5 | inactive
CG7156 | DRSC16207 | – | – | 7658 | 2.71e5 | inactive
Xrp1 | DRSC15282 | – | – | 5372 | 2.27e5 | inactive
Xrp1 | DRSC15283 | reporter ratio lowered past the hit cutoff | – | 4684 | 4.02e5 | active
Xrp1 | DRSC28718 | – | reporter ratio lowered past the hit cutoff | – | – | active
CG32284 | DRSC08025 | – | – | 4919 | 4.73e5 | inactive
Cp19 | DRSC11121 | – | – | 6551 | 3.31e5 | inactive
CG7781 | DRSC03068 | – | – | 6768 | 4.47e5 | inactive
eIF2Bdelta | DRSC04058 | – | – | 25721 | 5.22e5 | inactive
DIP-alpha | DRSC17891 | – | – | 4924 | 4.93e5 | inactive
DIP-alpha | DRSC17892 | – | – | 4464 | 2.16e5 | inactive
DIP-alpha | DRSC23275 | – | – | 3856 | 2.82e5 | inactive
CG6276 | DRSC16007 | – | – | 7715 | 3.50e5 | inactive
CG17931 + CG42446 | DRSC15293 | – | – | 6383 | 2.74e5 | inactive
Ir21a | DRSC00528 | – | – | 8414 | 3.81e5 | inactive
Duox | DRSC00571 | – | – | 7139 | 4.38e5 | inactive
nod | DRSC18900 | – | – | 4859 | 3.96e5 | inactive
nod | DRSC20356 | – | – | 8391 | 5.08e5 | inactive
